Positions of bridges follow the written chain, without caps; N, C: chain ends. Non-standard residues stand in square brackets, D forms with d. Residues, ends and D or L forms follow the SMILES beside them. pGlu = O=C1CC[C@@H](C(=O)O)N1

The series has as its system T. pityocampa larvae. Put plainly: Toxicity tests, topical application on second instar larvae. The class given is in vivo. The note with it: Probit analysis, day 14 mortality. How it is done:
Pine processionary moth 2nd instar larvae of Thaumetopoea pityocampa for toxicity tests, adult, and 1st instar larvae of predator Calosoma sycophanta, 2nd instar larvae of potato beetle Leptinotarsa decemlineata were used for side effect assays.
T. pityocampa larvae were collected from red pine trees, Pinus brutia, in Nallıhan district of Ankara, Türkiye, in 2021. Larvae were cultured in 60 (±10) % humidity, 27 (±2) °C, and 16:8 light: dark photoperiod and were fed with red pine needles.
Stock solutions of the molecules were dissolved in DMSO, AST-C peptide was dissolved in PBS supplemented with 0.1% BSA pH 7.4. Dilutions were prepared in PBS supplemented with 0.1% BSA pH 7.4 in 50, 100, 250, 500, 750, and 1000 ppm (mg/L) concentrations and later placed in an ultrasonic bath (Sonorex, Bandelin) for ~10 min at 37 °C until all precipitates had vanished. Toxicity tests were conducted 1 day after larvae collection. 5 µL of doses were applied on the dorsal surface of the head-prothorax junction topically. […] Two negative control groups were prepared as PBS-applied and no application. Following the procedures, larvae were fed with 15 g P. brutia needles. Experiments were carried out on 10 larvae for each dosage, with three repeats.
Insect deaths were evaluated on the 3rd, 7th, and 14th days in toxicity and side effect experiments. The ones that were not feeding or not responding by a movement to stimulation with a soft-tipped brush were accepted as dead. Percentage mortality values generated on the 14th day were corrected using Abbott’s formula[84]. Statistical analyses were executed with IBM SPSS Statistics (v26.0) and R Studio (2022.02.0), and two-way ANOVA and Tukey test were performed to detect the data’s statistical significance. Lethal concentration values of LC50–90 (dose that produces 50-90% mortality in the population) with 95% confidence intervals (CI) and slopes were obtained using PoloPlus software (LeOra Software, USA) for mortality values assessed on the 14th day for T. pityocampa and the 3rd day for L. decemlineata. The LC50–90 values were considered to be similar if their 95% CIs overlapped (P > 0.05)[85]. Analysis between-subject effects on T. pityocampa larva length; one-way ANOVA tests assessing the impacts of molecule treatment on T. pityocampa larvae on larva length; and analysis of between-subjects effects on T. pityocampa head capsule width, alongside one-way ANOVA tests regarding the effects of molecule treatment on T. pityocampa larvae to head capsule width are detailed in the Source Data File (Source Data Supplementary Data Tables 1–4). Source data is available as Source Data File.
For `COc1ccc([C@H](CC(=O)NCc2ccncc2)c2cn(Cc3ccc(C)cc3)c3ccccc23)cc1OCc1ccccc1` [V029-3547], the “Slope ± SE” value is reported as 3.704 ± 0.871.

Turning to `CC[C@H](C)[C@@H]1NC(=O)[C@@H]2CCCN2C(=O)[C@H](CC(N)=O)NC(=O)[C@H](Cc2ccccc2)NC(=O)[C@H](Cc2ccc(O)cc2)NC(=O)[C@@H](NC(=O)[C@H](CCC(N)=O)NC(=O)[C@H](CCCNC(=N)N)NC(=O)[C@H](Cc2ccccc2)NC(=O)[C@H](CCCNC(=N)N)NC(=O)[C@@H](NC(=O)[C@@H]2CCC(=O)N2)C(C)C)CSSC[C@@H](C(=O)N[C@@H](Cc2ccccc2)C(=O)O)NC(=O)[C@H](CO)NC1=O` [AST-C, reference compound] ([pGlu]VRFRQCYFNPISCF-OH; disulfide 7-14; C-terminus assumed), the “Slope ± SE” value stood at 1.803 ± 0.299.

For the compound `O=C1c2n[nH]c(-c3ccccc3O)c2C(c2cccc(Oc3ccccc3)c2)N1CC1CCCO1` (centres unmarked) [D074-0013], the “Slope ± SE” value is 0.377 ± 0.266.

Regarding `O=C(C[C@@H]1NC(=O)c2ccccc2NC1=O)NCCn1c(=O)c(O)nc2ccccc21` [J100-0311], the “Slope ± SE” value is recorded as 1.916 ± 0.429.

For the compound `O=C1c2n[nH]c(-c3ccccc3O)c2C(c2cccc(OCc3ccccc3)c2)N1CC1CCCO1` (centres unmarked) [D074-0034], the “Slope ± SE” value was found to be 0.736 ± 0.262.

For the origin of these results see paper PMC11087482, “Discovering allatostatin type-C receptor specific agonists” (Nature Communications, 2024).
